Experimental data as given in publication PMC8542044.
These are yes or no findings as the source states them, for the method shown. In cells and extracts the contact can be indirect. These calls come from enrichment with a bait or labelling near it, and not all partners need be listed. Tags and fused reporters may be left off the sequences shown.

Chains of the proteins cited; added tags and fusions are not shown.
UniProt P55263: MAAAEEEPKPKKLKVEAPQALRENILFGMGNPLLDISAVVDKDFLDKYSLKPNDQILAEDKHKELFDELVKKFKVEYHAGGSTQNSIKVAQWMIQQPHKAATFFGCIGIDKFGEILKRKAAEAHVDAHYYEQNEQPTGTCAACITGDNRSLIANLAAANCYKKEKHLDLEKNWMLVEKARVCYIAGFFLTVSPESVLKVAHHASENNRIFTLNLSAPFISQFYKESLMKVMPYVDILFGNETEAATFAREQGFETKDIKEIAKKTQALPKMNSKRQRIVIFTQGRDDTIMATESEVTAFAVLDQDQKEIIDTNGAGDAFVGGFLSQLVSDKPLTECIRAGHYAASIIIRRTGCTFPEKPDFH
UniProt Q05655: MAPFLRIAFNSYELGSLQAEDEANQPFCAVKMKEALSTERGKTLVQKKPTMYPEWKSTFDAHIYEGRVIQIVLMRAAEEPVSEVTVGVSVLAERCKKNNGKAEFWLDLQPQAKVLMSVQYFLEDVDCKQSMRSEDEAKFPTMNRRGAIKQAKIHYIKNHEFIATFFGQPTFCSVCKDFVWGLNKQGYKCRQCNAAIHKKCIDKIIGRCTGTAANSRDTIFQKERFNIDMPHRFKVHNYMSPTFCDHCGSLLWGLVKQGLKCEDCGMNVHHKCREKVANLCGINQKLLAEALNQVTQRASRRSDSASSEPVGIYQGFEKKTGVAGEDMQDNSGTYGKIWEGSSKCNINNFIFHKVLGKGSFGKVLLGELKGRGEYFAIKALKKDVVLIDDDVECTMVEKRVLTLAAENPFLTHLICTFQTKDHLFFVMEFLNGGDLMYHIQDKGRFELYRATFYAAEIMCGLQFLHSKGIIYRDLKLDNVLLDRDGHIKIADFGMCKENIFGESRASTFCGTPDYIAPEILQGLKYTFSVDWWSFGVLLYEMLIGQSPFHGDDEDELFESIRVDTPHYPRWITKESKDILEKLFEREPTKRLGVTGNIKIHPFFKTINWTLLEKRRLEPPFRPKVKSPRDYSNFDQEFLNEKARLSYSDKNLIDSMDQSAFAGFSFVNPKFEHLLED
UniProt Q9H4A3: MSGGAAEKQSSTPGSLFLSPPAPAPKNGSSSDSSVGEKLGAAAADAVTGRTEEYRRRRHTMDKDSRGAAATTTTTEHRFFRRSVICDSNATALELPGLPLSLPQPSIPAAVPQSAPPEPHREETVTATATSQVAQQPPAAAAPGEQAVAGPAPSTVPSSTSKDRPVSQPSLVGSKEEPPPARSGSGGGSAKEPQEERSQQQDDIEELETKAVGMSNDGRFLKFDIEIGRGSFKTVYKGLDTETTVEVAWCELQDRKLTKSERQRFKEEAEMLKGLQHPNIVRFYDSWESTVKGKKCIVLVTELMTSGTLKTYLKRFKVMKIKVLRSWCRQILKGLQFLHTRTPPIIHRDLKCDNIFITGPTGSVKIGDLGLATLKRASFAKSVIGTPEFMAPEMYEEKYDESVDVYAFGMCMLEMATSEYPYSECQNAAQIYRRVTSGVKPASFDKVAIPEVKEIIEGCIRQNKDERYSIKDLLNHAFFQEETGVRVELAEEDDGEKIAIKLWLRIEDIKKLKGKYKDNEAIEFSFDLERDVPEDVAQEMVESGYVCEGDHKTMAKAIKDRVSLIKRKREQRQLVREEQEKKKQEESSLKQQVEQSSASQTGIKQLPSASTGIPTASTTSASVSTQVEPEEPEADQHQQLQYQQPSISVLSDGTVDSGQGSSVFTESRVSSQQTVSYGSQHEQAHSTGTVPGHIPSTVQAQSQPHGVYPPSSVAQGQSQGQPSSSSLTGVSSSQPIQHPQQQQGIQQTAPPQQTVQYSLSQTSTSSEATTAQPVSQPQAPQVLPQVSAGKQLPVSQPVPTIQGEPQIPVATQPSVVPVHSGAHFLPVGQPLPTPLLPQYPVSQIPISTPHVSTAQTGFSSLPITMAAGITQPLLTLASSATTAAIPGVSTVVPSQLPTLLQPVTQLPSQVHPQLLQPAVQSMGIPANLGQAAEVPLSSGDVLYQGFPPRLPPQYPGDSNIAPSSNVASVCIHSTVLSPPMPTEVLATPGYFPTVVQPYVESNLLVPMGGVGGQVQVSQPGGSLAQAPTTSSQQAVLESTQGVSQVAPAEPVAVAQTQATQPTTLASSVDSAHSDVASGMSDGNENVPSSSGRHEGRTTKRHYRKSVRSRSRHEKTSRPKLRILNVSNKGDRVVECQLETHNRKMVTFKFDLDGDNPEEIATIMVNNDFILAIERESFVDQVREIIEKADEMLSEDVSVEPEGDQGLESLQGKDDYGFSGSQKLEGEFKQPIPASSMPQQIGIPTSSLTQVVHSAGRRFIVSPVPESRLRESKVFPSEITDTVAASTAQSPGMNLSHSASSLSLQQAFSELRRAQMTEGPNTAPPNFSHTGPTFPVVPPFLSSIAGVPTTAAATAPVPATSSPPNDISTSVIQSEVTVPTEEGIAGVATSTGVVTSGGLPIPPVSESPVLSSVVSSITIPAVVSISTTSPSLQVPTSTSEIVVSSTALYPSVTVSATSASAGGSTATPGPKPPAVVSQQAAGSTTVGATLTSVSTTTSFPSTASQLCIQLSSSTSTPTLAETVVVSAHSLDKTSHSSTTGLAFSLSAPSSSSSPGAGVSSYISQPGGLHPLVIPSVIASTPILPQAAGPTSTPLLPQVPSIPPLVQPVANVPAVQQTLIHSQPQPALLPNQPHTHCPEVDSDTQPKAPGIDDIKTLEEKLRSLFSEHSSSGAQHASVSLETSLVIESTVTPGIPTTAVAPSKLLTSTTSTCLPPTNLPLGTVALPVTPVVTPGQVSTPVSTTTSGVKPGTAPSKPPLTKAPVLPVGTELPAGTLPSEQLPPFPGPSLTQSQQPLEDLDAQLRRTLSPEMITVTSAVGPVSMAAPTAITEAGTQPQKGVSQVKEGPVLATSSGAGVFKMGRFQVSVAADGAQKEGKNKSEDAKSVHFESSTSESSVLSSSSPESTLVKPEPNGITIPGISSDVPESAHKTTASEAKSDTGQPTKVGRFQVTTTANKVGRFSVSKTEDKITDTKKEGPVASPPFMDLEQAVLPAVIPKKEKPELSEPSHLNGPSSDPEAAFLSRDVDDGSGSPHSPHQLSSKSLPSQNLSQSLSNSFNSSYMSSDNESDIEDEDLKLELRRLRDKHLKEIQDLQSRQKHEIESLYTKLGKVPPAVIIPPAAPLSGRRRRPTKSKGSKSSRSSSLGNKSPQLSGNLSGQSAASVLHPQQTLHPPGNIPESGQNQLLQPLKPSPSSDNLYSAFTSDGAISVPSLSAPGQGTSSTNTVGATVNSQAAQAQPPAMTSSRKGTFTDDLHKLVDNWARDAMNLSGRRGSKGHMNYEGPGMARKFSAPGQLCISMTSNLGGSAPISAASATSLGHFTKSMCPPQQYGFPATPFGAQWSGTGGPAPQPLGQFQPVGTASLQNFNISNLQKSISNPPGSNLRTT

B1: PRKCI (enzyme, UniProt P41743 1-596)
chain: MPTQRDSSTMSHTVAGGGSGDHSHQVRVKAYYRGDIMITHFEPSISFEGLCNEVRDMCSFDNEQLFTMKWIDEEGDPCTVSSQLELEEAFRLYELNKDSELLIHVFPCVPERPGMPCPGEDKSIYRRGARRWRKLYCANGHTFQAKRFNRRAHCAICTDRIWGLGRQGYKCINCKLLVHKKCHKLVTIECGRHSLPQEPVMPMDQSSMHSDHAQTVIPYNPSSHESLDQVGEEKEAMNTRESGKASSSLGLQDFDLLRVIGRGSYAKVLLVRLKKTDRIYAMKVVKKELVNDDEDIDWVQTEKHVFEQASNHPFLVGLHSCFQTESRLFFVIEYVNGGDLMFHMQRQRKLPEEHARFYSAEISLALNYLHERGIIYRDLKLDNVLLDSEGHIKLTDYGMCKEGLRPGDTTSTFCGTPNYIAPEILRGEDYGFSVDWWALGVLMFEMMAGRSPFDIVGSSDNPDQNTEDYLFQVILEKQIRIPRSLSVKAASVLKSFLNKDPKERLGCHPQTGFADIQGHPFFRNVDWDMMEQKQVVPPFKPNISGEFGLDNFDSQFTNEPVQLTPDDDDIVRKIDQSEFEGFEYINPLLMSAEECV

Target: T1, Flag-MLKL-Q356A (human) (UniProt Q8NB16)
T1 sequence: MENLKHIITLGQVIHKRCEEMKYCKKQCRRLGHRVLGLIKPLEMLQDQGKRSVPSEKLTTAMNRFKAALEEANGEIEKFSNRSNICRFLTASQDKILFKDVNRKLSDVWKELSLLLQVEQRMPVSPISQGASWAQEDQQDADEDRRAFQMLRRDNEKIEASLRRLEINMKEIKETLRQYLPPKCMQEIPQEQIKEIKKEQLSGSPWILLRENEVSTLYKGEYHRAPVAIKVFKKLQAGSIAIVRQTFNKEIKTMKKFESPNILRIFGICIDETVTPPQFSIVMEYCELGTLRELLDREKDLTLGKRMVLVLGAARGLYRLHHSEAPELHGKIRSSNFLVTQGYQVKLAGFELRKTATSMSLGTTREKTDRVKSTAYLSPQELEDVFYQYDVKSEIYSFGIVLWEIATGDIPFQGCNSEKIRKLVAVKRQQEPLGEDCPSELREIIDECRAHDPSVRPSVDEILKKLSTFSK
Assay: affinity purification with mass spectrometry; oligomerized MLKL Q356A after Dox induction, with or without NSA; proteins bound identified by mass spectrometry (Table S4)

binding, binds:
ADK (from UniProt P55263 1-362) (enzyme)
PRKCD (from UniProt Q05655 1-676) (enzyme)
WNK1 (from UniProt Q9H4A3 1-2382) (enzyme)
B1
